Reference: article doi:10.1101/445148
Results are given in words; binding and its absence hold for the method and conditions named. In cells and extracts the contact can be indirect. Here binding means that the protein was enriched with, or labelled near, the bait; the list need not be complete. For part of these data: A no says only that the protein was not detected with the bait.

Amino acid sequences for entries named in this document (tags omitted).
UniProt Q9H8M2: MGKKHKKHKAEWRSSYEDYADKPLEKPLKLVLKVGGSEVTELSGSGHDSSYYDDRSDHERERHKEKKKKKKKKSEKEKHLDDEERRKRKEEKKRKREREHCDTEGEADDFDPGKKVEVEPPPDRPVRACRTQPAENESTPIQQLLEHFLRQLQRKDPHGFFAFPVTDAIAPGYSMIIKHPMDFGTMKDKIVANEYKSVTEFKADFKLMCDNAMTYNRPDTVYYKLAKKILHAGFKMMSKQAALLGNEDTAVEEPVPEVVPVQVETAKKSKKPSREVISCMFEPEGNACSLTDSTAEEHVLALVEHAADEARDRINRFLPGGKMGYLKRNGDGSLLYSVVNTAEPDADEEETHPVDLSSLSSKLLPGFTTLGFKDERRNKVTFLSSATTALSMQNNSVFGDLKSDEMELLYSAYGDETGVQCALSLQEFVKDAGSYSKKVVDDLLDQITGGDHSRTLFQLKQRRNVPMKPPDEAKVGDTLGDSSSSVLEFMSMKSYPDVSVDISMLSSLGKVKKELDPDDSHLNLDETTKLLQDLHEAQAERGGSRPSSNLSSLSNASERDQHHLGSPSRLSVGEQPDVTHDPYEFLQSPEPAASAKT
UniProt Q92922: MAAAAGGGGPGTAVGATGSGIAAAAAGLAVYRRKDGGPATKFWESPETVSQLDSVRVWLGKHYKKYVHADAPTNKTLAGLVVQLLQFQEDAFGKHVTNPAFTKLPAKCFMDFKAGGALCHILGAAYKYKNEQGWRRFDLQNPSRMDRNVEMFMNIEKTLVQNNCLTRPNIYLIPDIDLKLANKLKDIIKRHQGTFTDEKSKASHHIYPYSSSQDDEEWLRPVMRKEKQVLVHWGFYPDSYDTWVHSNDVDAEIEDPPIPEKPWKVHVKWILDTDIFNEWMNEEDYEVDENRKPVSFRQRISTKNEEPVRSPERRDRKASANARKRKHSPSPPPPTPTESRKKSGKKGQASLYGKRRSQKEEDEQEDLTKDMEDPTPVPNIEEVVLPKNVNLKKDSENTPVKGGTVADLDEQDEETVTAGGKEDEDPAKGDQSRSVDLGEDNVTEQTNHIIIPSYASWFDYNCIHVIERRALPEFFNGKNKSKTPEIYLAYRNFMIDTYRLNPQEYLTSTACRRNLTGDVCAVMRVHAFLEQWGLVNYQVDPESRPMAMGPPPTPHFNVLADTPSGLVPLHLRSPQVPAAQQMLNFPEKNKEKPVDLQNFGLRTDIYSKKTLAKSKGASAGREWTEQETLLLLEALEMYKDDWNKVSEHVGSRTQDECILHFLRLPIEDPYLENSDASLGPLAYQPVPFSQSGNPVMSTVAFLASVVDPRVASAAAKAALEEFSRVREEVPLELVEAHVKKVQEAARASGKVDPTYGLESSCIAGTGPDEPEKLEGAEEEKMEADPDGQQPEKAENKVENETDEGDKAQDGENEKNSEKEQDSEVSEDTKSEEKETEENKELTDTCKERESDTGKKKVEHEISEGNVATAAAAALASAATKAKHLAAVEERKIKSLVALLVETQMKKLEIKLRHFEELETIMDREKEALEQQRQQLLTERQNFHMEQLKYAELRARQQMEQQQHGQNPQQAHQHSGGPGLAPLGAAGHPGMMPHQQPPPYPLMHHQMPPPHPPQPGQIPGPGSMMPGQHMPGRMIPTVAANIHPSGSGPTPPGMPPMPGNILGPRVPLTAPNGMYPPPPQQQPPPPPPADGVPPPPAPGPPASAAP
UniProt Q96GM5: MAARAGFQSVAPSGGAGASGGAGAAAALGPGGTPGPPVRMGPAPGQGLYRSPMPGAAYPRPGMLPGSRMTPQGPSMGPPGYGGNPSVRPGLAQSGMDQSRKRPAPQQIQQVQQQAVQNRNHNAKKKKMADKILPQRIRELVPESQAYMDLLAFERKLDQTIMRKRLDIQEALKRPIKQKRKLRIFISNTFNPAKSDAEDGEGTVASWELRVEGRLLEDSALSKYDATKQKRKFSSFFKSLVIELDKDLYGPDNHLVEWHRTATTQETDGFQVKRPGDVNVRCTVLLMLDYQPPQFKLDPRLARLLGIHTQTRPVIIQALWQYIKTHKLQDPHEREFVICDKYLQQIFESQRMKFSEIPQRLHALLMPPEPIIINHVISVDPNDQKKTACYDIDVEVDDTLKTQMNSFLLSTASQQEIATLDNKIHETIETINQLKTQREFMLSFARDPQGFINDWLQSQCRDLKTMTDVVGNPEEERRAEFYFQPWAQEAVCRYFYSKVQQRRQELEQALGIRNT
UniProt Q9NZM4: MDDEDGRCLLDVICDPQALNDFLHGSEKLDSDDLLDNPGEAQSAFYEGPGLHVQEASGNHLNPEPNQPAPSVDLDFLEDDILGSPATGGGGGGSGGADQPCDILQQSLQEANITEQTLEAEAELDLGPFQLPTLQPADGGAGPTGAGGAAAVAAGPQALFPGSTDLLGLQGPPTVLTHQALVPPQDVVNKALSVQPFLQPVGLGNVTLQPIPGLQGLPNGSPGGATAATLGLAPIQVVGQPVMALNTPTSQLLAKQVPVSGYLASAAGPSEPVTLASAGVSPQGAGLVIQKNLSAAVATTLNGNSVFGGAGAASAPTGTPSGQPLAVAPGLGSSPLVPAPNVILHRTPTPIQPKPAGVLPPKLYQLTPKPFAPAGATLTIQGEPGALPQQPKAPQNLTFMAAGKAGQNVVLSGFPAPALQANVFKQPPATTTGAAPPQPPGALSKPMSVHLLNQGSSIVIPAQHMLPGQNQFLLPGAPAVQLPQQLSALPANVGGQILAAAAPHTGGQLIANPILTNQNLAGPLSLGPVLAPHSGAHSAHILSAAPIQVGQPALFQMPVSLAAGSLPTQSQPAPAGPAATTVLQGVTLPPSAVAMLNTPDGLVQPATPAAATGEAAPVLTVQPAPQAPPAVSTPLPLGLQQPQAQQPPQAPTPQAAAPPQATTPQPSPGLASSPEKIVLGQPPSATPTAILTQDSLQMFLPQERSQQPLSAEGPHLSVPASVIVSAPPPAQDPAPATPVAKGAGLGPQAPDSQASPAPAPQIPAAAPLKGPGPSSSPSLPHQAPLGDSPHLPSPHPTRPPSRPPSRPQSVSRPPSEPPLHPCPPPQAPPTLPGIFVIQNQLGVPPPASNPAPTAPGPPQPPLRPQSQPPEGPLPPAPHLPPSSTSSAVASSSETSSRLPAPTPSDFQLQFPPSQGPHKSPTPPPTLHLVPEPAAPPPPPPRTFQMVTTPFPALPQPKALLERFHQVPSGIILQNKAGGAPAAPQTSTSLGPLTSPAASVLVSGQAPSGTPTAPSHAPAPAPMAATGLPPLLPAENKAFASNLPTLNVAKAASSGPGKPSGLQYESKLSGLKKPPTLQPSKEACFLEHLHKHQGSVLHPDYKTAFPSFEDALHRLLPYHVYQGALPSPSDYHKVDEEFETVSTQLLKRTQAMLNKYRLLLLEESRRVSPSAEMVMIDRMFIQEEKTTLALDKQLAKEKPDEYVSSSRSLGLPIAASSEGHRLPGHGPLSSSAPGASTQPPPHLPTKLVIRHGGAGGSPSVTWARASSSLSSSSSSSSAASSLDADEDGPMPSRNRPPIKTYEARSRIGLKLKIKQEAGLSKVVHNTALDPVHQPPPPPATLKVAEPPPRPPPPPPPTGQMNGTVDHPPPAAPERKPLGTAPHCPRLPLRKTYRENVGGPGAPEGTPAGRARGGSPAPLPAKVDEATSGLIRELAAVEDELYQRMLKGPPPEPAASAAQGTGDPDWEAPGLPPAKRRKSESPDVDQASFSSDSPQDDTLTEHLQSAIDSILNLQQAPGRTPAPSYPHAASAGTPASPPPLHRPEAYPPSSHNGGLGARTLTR
UniProt Q969G3: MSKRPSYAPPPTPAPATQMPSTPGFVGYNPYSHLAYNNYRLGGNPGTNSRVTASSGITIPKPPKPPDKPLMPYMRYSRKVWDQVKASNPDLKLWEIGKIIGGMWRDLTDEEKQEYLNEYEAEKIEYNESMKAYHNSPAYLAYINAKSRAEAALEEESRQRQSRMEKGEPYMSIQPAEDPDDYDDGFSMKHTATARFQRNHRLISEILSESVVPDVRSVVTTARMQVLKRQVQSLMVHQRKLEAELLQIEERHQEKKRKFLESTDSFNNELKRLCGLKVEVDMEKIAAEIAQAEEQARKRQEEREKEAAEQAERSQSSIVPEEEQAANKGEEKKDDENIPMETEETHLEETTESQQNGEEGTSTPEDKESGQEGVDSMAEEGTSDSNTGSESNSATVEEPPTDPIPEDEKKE
UniProt Q15532: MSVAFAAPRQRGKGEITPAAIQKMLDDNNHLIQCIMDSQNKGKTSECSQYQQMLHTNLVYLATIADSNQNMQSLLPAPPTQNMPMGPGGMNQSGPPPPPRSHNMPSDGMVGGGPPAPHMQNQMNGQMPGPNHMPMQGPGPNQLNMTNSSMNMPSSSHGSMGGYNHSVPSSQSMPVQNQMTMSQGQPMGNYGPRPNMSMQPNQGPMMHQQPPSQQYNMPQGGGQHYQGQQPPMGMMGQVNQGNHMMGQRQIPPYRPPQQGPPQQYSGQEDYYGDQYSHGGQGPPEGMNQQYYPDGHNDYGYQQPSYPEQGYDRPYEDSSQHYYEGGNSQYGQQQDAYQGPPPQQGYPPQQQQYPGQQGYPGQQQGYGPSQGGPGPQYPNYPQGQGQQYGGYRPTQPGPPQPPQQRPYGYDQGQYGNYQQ
UniProt O00268: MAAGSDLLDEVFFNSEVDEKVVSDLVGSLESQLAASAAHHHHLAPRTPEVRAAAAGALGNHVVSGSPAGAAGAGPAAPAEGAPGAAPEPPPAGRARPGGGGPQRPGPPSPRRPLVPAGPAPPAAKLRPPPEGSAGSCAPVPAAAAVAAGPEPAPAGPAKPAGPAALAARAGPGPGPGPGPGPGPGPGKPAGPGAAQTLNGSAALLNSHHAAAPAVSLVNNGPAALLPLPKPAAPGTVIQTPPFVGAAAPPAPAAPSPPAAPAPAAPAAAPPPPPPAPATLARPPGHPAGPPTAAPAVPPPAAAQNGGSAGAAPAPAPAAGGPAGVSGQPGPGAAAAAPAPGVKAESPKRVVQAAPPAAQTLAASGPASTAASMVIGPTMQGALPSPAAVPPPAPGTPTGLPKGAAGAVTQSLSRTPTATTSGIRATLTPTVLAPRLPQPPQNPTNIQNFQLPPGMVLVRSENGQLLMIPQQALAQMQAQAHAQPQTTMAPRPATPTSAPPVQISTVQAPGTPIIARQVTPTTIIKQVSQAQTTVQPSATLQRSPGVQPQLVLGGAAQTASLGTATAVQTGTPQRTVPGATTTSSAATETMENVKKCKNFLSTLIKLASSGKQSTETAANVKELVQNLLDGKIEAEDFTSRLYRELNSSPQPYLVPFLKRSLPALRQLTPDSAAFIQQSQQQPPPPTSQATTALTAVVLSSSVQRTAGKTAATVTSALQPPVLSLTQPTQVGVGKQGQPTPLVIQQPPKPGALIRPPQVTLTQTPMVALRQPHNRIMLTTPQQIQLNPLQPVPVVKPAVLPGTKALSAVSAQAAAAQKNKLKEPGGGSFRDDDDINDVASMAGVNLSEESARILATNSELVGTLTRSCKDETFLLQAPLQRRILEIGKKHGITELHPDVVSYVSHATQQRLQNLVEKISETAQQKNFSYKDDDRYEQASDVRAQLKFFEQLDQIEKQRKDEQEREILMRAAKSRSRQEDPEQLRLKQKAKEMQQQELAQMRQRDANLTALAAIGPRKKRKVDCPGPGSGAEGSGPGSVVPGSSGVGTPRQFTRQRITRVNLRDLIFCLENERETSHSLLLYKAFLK
UniProt P49848: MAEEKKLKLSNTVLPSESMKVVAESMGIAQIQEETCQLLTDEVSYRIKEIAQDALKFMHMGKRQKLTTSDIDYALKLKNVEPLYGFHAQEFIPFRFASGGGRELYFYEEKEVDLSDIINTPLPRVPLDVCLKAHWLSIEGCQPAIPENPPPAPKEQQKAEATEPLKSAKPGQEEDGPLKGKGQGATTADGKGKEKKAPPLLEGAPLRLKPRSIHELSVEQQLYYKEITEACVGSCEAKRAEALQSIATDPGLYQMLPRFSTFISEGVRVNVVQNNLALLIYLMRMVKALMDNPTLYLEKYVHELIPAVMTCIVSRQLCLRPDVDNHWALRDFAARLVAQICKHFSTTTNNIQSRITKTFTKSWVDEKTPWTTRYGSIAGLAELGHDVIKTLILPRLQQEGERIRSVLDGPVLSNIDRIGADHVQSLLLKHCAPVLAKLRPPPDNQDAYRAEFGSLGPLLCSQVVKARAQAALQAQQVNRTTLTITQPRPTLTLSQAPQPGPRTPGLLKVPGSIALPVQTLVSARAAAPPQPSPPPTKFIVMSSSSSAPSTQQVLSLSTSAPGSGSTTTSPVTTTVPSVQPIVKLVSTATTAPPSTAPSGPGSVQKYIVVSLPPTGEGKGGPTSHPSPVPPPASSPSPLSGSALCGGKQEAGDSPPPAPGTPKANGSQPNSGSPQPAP

How the values were obtained:
Experiment in all cases: affinity purification with mass spectrometry
[1] = target: GFP-tagged GLTSCR1L, full length (UniProt Q6AI39)
GFP-tagged BRD9 = GFP-tagged BRD9 (UniProt Q9H8M2)
[2] = target: GFP-tagged SMARCC1 (BAF155) (UniProt Q92922)
[3] = target: GFP-tagged SMARCD1 (BAF60a) (UniProt Q96GM5)
[4] = target: GFP-tagged GLTSCR1L lacking the GiBAF-domain (UniProt Q6AI39)

Substance | binding [1] | further results
BCL7C (from UniProt Q8WUZ0 1-217) | binds | 
BRD9 (from UniProt Q9H8M2 1-597) | binds | 
DPF1 (BAF45B) (from UniProt Q92782 1-387) | no binding | 
DPF2 (from UniProt Q92785 1-391) | no binding | 
GLTSCR1 (from UniProt Q9NZM4 1-1560) | no binding | binding (GFP-tagged BRD9): binds; binding [2]: binds; binding [3]: binds
GLTSCR1L (from UniProt Q6AI39 1-1079) |  | binding (GFP-tagged BRD9): binds; binding [2]: binds; binding [3]: binds
SMARCA4 (BRG1) (from UniProt P51532 1-1647) | binds | 
SMARCC1 (BAF155) (from UniProt Q92922 1-1105) | binds | 
SMARCD1 (BAF60a) (from UniProt Q96GM5 1-515) | binds | 
SMARCE1 (BAF57) (from UniProt Q969G3 1-411) | no binding | 
SS18 (from UniProt Q15532 1-418) | binds | 
TAF4 (from UniProt O00268 1-1085) |  | binding [4]: binds
TAF6 (from UniProt P49848 1-677) |  | binding [4]: binds
